Where a name gives a salt, the structure may show the parent alone. ± gives the standard deviation of the averaged measurements. This is one part of the list. This data set is noisy: repeats of one test often differ as much as different tests do.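 The A. baumannii strains are clinical isolates chosen because they resist the partner antibiotic, and the screen looks for drugs that restore that antibiotic's effect. The reading at the start of incubation is subtracted to remove background from coloured compounds.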
System: Acinetobacter baumannii WP-487
Experiment: percent growth inhibition of drug + antibiotic vs DMSO control; higher = more growth inhibition
Settings: antibiotic (0.125x MIC): colistin

| SMILES | percent growth inhibition (7 µM) [%] | percent growth inhibition (20 µM) [%] |
| --- | --- | --- |
| CCCC(C(=O)OCCN(CC)CC)(c1ccccc1)c1ccccc1 [Proadifen hydrochloride] | 3.62 ± 9.9 | 44.6 ± 50 |
| O=C1OCCN1/N=C/c1ccc([N+](=O)[O-])o1 [Furazolidone] | 43.5 ± 54 | 98.3 ± 2.4 |
| O=C1NCCN1c1ncc([N+](=O)[O-])s1 [Niridazole] | 17.4 ± 29 | 52.4 ± 66 |
| COC(=O)[C@H]1[C@H]2C[C@@H]3c4[nH]c5cc(OC)ccc5c4CCN3C[C@H]2C[C@@H](OC(=O)c2cc(OC)c(OC)c(OC)c2)[C@@H]1OC [Reserpine] | -1.51 ± 1.4 | 50.4 ± 68 |
| O=c1[nH]c(=O)n([C@H]2C[C@H](O)[C@@H](CO)O2)cc1F [Floxuridine] | 26.2 ± 41 | 51.9 ± 65 |
| O=C1NCN(c2ccccc2)C12CCN(CCCC(c1ccc(F)cc1)c1ccc(F)cc1)CC2 [Fluspirilen] | 51.1 ± 69 | 97.6 ± 2.8 |
| C=CCOC(Cn1ccnc1)c1ccc(Cl)cc1Cl (stereo not drawn) [Enilconazole] | 4.28 ± 1.6 | 50.3 ± 70 |
| CSc1ccc2c(c1)C(N1CCN(C)CC1)Cc1ccccc1S2 (stereo not drawn) [Methiothepin maleate] | 55.9 ± 51 | 51.6 ± 56 |
| CC(C)C(=O)OCC(=O)[C@@]12O[C@H](C3CCCCC3)O[C@@H]1C[C@H]1[C@@H]3CCC4=CC(=O)C=C[C@]4(C)[C@H]3[C@@H](O)C[C@@]12C [Ciclesonide] | 5.94 ± 19 | 36.1 ± 69 |

— the supplement of paper PMC6658780
